No constants are given. Whether binding was seen depends on the method and setting. Some results given as binding are weak or reduced against the parent protein; the word gives no strength. Sequences can lack the tags named with a protein. Each block holds one binder with its values, some of them ahead of it.
Legend:
[1] = biological target: T1, CD47 on the T cell surface (UniProt Q61735); assay: flow cytometry blocking assay on CAR T cells and bystander T cells; competitor is the fluorescently labeled anti-CD47 mAb
T1 sequence (looked up): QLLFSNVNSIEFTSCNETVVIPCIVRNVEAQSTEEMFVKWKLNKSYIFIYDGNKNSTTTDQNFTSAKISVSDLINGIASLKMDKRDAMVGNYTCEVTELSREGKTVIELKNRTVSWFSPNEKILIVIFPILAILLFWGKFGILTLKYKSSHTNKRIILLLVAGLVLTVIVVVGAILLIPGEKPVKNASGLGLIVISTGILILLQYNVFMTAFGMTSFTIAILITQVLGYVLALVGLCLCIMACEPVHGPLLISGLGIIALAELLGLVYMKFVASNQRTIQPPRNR

[2] = biological target: T1, CD47 on the T cell surface; assay: flow cytometry blocking assay, A12 CAR-P2A-A4 T cells (FIG. 7)
[3] = biological target: T1, CD47 on the T cell surface; assay: flow cytometry blocking assay on A12 CAR-P2A-A4Fc T cells (FIG. 17)

binding [1]: binds
binding [2]: binds
B1: A4 (anti-CD47 VHH), HA-tagged, secreted by CAR T cells (VHH, not shown: small tags and cut ends)
VHH: QVQLVESGGGLVEPGGSLRLSCAASGIIFKINDMGWYRQAPGKRREWVAASTGGDEAIYRDSVKDRFTISRDAKNSVFLQMNSLKPEDTAVYYCTAVISTDRDGTEWRRYWGQGTQVTVSS

binding [3]: binds
B2: A4-Fc (anti-CD47 VHH A4 fused to an IgG2a Fc domain, with an HA tag) (Fc fusion, not shown: a dimerising Fc or GST; small tags and cut ends)
chain: B1 VHH

From patent US20220175833A1
